From the supplement of paper PMC10849652
This is one part of the list. Residues, ends and D or L forms follow the SMILES beside them. *: point of attachment. Cbz = O=C(OCc1ccccc1)*

The chains behind the UniProt entries cited, without tags or fusion partners. Where a name states a change or a piece, a line headed by the entry shows the natural chain unless it says otherwise.
UniProt Q96I59: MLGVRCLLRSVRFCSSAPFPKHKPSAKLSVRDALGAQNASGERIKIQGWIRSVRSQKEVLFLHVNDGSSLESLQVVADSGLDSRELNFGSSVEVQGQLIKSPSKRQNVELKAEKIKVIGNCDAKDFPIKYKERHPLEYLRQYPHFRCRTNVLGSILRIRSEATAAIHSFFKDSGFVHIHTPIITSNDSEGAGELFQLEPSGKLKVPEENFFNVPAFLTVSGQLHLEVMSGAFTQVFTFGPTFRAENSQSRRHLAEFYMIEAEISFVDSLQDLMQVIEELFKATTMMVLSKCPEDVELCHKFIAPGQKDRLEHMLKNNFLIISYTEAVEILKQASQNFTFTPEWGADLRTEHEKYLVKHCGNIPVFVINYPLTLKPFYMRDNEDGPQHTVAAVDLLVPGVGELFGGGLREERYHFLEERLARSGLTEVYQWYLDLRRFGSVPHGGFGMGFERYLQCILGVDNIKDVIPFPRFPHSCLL
UniProt Q9Y6M9, whole entry, looked up: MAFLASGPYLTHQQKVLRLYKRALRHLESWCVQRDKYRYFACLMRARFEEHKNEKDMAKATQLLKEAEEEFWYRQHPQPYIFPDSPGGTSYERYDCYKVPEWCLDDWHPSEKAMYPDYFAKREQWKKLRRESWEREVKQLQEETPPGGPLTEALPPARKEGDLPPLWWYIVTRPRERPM
UniProt Q8NI08: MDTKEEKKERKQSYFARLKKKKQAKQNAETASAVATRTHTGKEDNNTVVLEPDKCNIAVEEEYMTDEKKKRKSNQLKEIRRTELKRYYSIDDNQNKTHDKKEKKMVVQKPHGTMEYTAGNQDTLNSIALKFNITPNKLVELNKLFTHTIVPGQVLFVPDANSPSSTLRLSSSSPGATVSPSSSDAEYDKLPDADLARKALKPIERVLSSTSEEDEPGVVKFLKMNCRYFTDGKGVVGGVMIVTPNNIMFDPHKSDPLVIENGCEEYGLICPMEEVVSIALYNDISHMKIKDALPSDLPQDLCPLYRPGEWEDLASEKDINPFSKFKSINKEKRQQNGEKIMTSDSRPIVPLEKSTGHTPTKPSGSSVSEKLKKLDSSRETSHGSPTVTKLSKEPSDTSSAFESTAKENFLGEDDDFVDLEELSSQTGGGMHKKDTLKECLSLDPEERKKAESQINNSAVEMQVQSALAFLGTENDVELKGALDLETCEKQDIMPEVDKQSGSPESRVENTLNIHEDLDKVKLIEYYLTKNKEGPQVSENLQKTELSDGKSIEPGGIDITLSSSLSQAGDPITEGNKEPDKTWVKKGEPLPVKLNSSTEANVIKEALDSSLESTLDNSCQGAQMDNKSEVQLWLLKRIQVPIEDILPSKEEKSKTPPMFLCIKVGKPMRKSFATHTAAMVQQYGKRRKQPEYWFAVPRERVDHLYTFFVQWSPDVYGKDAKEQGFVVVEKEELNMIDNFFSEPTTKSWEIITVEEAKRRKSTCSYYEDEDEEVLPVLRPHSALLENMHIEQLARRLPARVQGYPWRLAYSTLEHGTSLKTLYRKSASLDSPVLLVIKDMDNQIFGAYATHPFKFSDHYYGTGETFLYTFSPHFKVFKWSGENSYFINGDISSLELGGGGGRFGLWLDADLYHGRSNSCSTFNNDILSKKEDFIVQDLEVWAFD
UniProt Q15003, whole entry, looked up: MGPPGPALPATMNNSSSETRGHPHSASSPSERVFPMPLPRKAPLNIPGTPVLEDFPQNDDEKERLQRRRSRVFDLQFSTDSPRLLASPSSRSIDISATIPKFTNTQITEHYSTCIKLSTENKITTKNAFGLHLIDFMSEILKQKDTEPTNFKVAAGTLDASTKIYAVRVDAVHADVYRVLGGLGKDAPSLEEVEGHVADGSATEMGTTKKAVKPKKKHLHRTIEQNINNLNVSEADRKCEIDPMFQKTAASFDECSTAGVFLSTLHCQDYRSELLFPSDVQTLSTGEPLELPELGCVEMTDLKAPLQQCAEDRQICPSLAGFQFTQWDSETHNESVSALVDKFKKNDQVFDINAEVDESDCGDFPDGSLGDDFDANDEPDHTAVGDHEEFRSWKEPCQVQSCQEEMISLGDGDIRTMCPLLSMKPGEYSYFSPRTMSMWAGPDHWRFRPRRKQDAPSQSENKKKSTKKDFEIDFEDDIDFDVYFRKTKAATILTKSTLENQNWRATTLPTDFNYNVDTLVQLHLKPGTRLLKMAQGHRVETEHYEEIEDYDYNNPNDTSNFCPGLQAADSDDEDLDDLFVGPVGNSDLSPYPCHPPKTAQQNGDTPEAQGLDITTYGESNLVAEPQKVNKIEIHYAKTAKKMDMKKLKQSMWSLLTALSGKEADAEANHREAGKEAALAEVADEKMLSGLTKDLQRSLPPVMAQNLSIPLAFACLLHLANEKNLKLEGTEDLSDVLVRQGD
UniProt Q9Y375: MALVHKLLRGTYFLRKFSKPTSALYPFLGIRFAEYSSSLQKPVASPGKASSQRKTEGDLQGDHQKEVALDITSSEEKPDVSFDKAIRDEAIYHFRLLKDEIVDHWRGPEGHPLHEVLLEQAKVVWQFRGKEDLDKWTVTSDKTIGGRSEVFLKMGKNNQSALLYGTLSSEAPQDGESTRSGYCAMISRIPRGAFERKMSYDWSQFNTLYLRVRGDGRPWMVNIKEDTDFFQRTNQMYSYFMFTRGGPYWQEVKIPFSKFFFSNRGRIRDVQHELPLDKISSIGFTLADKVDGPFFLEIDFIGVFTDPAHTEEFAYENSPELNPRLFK
UniProt Q8NC96: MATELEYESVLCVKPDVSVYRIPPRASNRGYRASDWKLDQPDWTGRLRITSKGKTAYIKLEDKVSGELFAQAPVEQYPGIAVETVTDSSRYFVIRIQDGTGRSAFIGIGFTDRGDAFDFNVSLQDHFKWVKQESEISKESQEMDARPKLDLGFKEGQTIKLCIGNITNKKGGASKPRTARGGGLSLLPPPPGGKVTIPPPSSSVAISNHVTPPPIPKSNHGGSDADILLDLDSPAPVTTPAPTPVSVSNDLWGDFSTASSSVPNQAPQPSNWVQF
UniProt Q8N183: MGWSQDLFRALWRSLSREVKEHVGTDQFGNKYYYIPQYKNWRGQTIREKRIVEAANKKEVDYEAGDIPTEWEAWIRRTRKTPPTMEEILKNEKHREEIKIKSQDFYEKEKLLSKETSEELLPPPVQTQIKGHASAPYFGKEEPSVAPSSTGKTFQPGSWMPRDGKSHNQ
UniProt P54920: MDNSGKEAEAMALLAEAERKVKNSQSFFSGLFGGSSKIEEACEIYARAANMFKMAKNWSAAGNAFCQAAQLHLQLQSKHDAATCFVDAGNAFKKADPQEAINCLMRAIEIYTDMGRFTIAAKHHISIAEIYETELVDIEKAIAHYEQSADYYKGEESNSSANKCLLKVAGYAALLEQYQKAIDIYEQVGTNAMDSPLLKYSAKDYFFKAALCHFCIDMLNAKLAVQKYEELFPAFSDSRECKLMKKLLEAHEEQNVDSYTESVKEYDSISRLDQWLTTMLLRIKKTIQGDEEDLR
UniProt Q9BT67: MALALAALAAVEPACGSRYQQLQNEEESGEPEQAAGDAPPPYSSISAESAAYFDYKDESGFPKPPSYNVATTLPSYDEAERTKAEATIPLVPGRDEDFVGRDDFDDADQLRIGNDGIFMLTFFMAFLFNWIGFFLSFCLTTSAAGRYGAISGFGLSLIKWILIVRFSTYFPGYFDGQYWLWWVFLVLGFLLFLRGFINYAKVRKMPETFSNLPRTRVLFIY
UniProt Q9UN36: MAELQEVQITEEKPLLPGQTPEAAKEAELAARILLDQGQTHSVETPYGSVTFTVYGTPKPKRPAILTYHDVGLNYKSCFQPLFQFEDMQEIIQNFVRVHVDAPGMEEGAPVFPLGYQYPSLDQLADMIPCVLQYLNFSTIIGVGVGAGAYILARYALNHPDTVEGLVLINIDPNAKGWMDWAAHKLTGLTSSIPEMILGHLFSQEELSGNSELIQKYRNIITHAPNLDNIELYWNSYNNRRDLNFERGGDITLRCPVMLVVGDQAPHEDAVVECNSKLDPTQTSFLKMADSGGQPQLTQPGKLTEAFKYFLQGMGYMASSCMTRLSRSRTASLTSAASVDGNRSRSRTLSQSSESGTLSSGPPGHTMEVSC
UniProt Q99733: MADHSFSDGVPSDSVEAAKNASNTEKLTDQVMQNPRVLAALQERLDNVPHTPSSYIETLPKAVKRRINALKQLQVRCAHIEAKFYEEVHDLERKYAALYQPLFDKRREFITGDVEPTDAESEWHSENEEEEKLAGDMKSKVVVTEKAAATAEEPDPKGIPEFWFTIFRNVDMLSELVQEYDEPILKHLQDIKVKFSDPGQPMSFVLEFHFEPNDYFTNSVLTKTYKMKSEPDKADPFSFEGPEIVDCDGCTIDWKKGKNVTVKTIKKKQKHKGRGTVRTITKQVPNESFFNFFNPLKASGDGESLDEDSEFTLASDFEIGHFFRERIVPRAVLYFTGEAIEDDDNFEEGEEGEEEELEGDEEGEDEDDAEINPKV
UniProt Q14CX7, whole entry, looked up: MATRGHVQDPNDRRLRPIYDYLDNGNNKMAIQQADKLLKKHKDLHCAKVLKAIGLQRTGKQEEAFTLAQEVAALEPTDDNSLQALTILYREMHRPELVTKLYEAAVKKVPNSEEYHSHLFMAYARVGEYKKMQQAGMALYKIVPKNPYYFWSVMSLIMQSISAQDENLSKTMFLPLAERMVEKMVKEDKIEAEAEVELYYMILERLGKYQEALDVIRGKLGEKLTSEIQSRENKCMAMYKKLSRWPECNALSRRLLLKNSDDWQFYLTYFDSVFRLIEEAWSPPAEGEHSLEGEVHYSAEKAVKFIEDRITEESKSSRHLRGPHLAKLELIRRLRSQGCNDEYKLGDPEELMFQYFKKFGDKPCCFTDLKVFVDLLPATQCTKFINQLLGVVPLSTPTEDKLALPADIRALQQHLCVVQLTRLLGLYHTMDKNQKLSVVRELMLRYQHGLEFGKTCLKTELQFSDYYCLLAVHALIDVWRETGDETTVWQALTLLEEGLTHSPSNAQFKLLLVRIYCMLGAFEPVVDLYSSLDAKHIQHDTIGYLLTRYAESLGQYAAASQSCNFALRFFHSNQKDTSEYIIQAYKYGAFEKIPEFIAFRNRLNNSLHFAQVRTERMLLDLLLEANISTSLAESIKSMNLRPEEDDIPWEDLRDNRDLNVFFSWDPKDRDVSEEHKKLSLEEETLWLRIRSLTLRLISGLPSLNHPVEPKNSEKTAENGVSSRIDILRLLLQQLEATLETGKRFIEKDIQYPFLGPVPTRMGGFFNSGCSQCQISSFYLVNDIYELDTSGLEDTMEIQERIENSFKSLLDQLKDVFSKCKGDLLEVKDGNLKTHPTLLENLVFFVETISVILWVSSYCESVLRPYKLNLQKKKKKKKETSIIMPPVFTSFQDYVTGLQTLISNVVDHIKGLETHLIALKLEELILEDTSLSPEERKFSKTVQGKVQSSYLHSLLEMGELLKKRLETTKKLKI
UniProt Q7L592: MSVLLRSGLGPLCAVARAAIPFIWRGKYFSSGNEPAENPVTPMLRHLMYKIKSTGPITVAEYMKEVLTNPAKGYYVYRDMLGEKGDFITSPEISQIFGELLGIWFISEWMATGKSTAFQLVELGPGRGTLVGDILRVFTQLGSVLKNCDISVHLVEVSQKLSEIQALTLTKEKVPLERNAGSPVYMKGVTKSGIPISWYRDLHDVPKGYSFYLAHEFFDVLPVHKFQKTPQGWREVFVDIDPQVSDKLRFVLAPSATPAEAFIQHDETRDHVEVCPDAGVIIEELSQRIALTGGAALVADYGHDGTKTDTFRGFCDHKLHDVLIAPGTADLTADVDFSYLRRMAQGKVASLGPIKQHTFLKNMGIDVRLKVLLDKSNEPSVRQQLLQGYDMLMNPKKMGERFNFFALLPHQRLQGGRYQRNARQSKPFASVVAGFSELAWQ
UniProt O60934: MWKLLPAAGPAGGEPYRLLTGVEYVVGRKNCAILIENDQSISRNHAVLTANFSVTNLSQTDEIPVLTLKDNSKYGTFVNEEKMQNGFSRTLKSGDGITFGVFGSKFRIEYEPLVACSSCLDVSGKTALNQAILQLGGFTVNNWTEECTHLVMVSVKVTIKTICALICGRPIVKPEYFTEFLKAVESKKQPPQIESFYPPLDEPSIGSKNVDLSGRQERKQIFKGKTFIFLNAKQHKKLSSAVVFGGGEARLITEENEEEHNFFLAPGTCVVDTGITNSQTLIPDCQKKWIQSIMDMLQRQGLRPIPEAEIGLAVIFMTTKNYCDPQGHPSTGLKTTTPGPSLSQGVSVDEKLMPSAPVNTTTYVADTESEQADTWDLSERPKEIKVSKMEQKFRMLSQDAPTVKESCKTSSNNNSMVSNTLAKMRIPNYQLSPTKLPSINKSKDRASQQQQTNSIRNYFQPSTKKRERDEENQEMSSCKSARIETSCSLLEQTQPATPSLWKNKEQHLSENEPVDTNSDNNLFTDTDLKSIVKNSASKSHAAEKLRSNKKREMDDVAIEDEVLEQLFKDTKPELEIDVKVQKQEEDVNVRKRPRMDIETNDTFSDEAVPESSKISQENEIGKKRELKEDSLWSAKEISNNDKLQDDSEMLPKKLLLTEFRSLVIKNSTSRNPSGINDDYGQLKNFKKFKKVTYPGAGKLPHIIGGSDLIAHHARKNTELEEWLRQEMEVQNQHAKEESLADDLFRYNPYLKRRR

How the values were obtained:
Experiment in all cases: log2 fold change, soluble protein after heating vs DMSO (PISA); higher = thermal stabilisation; K562 cells, 10 uM, 30 min; active = over 0.2 and 3.5 SD of the protein, either way, in both replicates (recomputed)
erlotinib = compound: C#Cc1cccc(Nc2ncnc3cc(OCCOC)c(OCCOC)cc23)c1 [erlotinib]
Method in brief: (§1)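 Soluble protein was defined as the supernatant after 21,000xg for 90 min. It came from K562 cells at 2×10^6 cells/mL given 10 μM compound for 30 min, heated in aliquots for 3 min across 48°C-58°C, pooled, and extracted in PBS with 0.5% NP-40 at 4°C, and was quantified by TMTpro 16plex LC-MS/MS with equalised channel sums. Thermal stability against control samples, from duplicates, is reported as log2 fold change.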

[1] = compound: C/C(=N\NC(=O)C1=CC(=CC=C1)S(=O)(=O)N2CCOCC2)/C3=C(C=CC(=C3)Cl)O
Method in brief: as §1

[2] = compound: C1=CC(=C(C=C1Cl)C2=NC3=NC=CN=C3C(=N2)NC4=CC=NC=C4)F
Method in brief: as §1

[3] = compound: C1=CC(=CC=C1C2=NC3=C(N2)C=C(C=C3)C(=O)N)OC4=CC=C(C=C4)Cl
Method in brief: as §1

[4] = compound: C1=CC2=C(C=CC(=C2)/C=C\3/C(=O)NC(=NCC4=CC=CS4)S3)N=C1
Method in brief: as §1

[5] = compound: C1=CC2=NC=CN=C2C=C1/C=C/3\C(=O)NC(=O)S3
Method in brief: as §1

[6] = compound: C1=CC=C(C=C1)C2=NC(=C(N2)C3=CC=NC=C3)C4=CC(=C(C=C4)Cl)O
Method in brief: as §1

[7] = compound: C1=CC=C2C(=C1)C3=NNC4=CC=CC(=C43)C2=O
Method in brief: as §1

[8] = compound: C1CCN(C1)C(=O)NC2=CC=CC(=C2)NC3=NC=C(C(=N3)NCCC4=CN=CN4)Br
Method in brief: as §1

[9] = compound: C1CN(CCC1(CC2=CC=C(C=C2)Cl)N)C3=NC=NC4=C3C=CN4
Method in brief: as §1

IRAK-1-4 Inhibitor I = compound: C1COCCN1CCN2C3=CC=CC=C3N=C2NC(=O)C4=CC(=CC=C4)[N+](=O)[O-] [IRAK-1-4 Inhibitor I]
Method in brief: as §1

ibrutinib = compound: C=CC(=O)N1CCC[C@@H](n2nc(-c3ccc(Oc4ccccc4)cc3)c3c(N)ncnc32)C1 [ibrutinib]
Method in brief: as §1

[10] = compound: CC(=O)c1cnc2ccc(-c3cc(Cl)c(O)c(Cl)c3)nc2c1N[C@H]1CC[C@H](CN(C)C)CC1
Method in brief: as §1

ralimetinib = compound: CC(C)(C)Cn1c(N)nc2ccc(-c3[nH]c(C(C)(C)C)nc3-c3ccc(F)cc3)nc21 [ralimetinib]
Method in brief: as §1

[11] = compound: CC(C)(O)CC(=O)NCCn1ccc2ncnc(Nc3ccc(Oc4cccc(C(F)(F)F)c4)c(Cl)c3)c21
Method in brief: as §1

[12] = compound: CC(C)C1=C2N=C(C=C(N2N=C1)NCC3=CC=CC=C3)NCCCCCCN
Method in brief: as §1

[13] = compound: CC(C)C[C@@H](C=O)NC(=O)[C@H](CC(C)C)NC(=O)[C@H](CC(C)C)NC(=O)OCc1ccccc1
Method in brief: as §1

pinometostat = compound: CC(C)N(C[C@H]1O[C@@H](n2cnc3c(N)ncnc32)[C@H](O)[C@@H]1O)[C@H]1C[C@@H](CCc2nc3cc(C(C)(C)C)ccc3[nH]2)C1 [pinometostat]
Method in brief: as §1

[14] = compound: CC1=C(C2=C(C=C1)C(=O)C3=CC=CC=C3N2CCCN)C
Method in brief: as §1

[15] = compound: CC1=C(C(CC(=O)N1)C2=CC=C(C=C2)C(F)(F)F)C(=O)NC3=C(C=C4C(=C3)C=NN4)F
Method in brief: as §1

Row | Target | log2 fold change (erlotinib) | log2 fold change [1] | log2 fold change [2] | log2 fold change [3] | log2 fold change [4] | log2 fold change [5] | log2 fold change [6] | log2 fold change [7] | log2 fold change [8] | log2 fold change [9] | log2 fold change (IRAK-1-4 Inhibitor I) | log2 fold change (ibrutinib) | log2 fold change [10] | log2 fold change (ralimetinib) | log2 fold change [11] | log2 fold change [12] | log2 fold change [13] | log2 fold change (pinometostat) | log2 fold change [14] | log2 fold change [15]
1 | NARS2 (UniProt Q96I59) | inactive: 0.037 | inactive: 0.065 | inactive: 0.07 | inactive: 0.008 | inactive: -0.018 | inactive: -0.004 | inactive: 0.053 | inactive: 0.017 | inactive: -0.002 | inactive: -0.083 | inactive: 0.044 | inactive: 0.03 | inactive: 0.034 | inactive: -0.034 | inactive: -0.121 | active: -0.31 | inactive: -0.019 | inactive: -0.019 | inactive: -0.006 | –
2 | NDUFB9 (UniProt Q9Y6M9) | inactive: 0.011 | inactive: 0.025 | inactive: 0.018 | inactive: 0.009 | inactive: 0.026 | inactive: -0.013 | inactive: 0.041 | inactive: -0.036 | inactive: -0.002 | inactive: 0.06 | inactive: 0.049 | inactive: 0.018 | inactive: 0.01 | inactive: -0.016 | inactive: -0.026 | inactive: -0.075 | inactive: -0.008 | inactive: -0.024 | inactive: 0.028 | inactive: -0.028
3 | NCOA7 (UniProt Q8NI08) | inactive: -0.027 | inactive: 0.063 | inactive: -0.047 | inactive: 0.004 | inactive: 0.07 | inactive: -0.048 | inactive: 0.014 | inactive: 0.011 | inactive: 0.024 | inactive: 0.045 | inactive: 0.017 | inactive: -0.056 | inactive: -0.075 | inactive: 0.052 | inactive: -0.005 | inactive: -0.088 | inactive: 0.072 | inactive: 0.019 | inactive: -0.009 | –
4 | NCAPH (UniProt Q15003) | inactive: 0.201 | inactive: 0.09 | inactive: 0.008 | inactive: -0.059 | inactive: 0.024 | inactive: 0.022 | inactive: -0.009 | inactive: 0.02 | inactive: -0.004 | inactive: -0.096 | inactive: -0.124 | inactive: -0.045 | inactive: 0.097 | inactive: 0.007 | inactive: -0.094 | inactive: -0.023 | inactive: 0.02 | inactive: 0.08 | inactive: -0.006 | –
5 | NDUFAF1 (UniProt Q9Y375) | inactive: 0.009 | inactive: -0.06 | inactive: 0.084 | inactive: -0.037 | inactive: 0.025 | inactive: 0.065 | inactive: -0.038 | inactive: 0.008 | inactive: 0.023 | inactive: 0.019 | inactive: 0.02 | inactive: 0.045 | inactive: 0.004 | inactive: -0.04 | inactive: -0.047 | inactive: 0.004 | inactive: 0.017 | inactive: -0.053 | inactive: -0.021 | inactive: 0.017
6 | NECAP1 (UniProt Q8NC96) | inactive: 0.034 | inactive: 0.047 | inactive: 0.046 | inactive: 0.009 | inactive: 0.067 | inactive: 0.029 | inactive: -0.029 | inactive: -0.081 | inactive: -0.027 | inactive: 0.002 | inactive: 0.006 | inactive: 0.005 | inactive: -0.082 | inactive: 0.019 | inactive: -0.013 | inactive: 0.02 | inactive: 0.009 | inactive: -0.034 | inactive: -0.013 | inactive: 0.02
7 | NDUFAF2 (UniProt Q8N183) | inactive: 0.036 | inactive: 0.008 | inactive: 0.053 | inactive: -0.013 | inactive: 0.028 | inactive: 0.033 | inactive: -0.042 | inactive: -0.019 | inactive: -0.002 | inactive: 0.033 | inactive: 0.046 | inactive: -0.004 | inactive: -0.008 | inactive: -0.002 | inactive: -0.044 | inactive: -0.042 | inactive: 0 | inactive: -0.058 | inactive: 0.009 | inactive: 0.014
8 | NAPA (UniProt P54920) | inactive: -0.014 | inactive: 0.094 | inactive: 0.039 | inactive: 0.015 | inactive: -0.031 | inactive: 0.025 | inactive: 0.063 | inactive: -0.003 | inactive: -0.056 | inactive: 0.026 | inactive: 0.039 | inactive: -0.009 | inactive: 0 | inactive: 0.009 | inactive: -0.094 | inactive: -0.01 | inactive: -0.041 | inactive: -0.016 | inactive: -0.019 | inactive: -0.001
9 | NCOR2 (UniProt C9J0Q5) | inactive: 0.087 | inactive: 0.153 | inactive: 0.073 | inactive: 0.052 | inactive: 0.232 | inactive: -0.003 | inactive: -0.036 | inactive: -0.071 | inactive: 0.003 | inactive: 0.118 | inactive: 0.181 | inactive: 0.004 | inactive: -0.102 | inactive: 0.013 | inactive: 0.04 | inactive: -0.007 | inactive: -0.077 | inactive: -0.032 | inactive: 0.041 | inactive: -0.109
10 | NDFIP1 (UniProt Q9BT67) | inactive: -0.066 | inactive: 0.07 | inactive: -0.046 | inactive: 0.077 | inactive: -0.244 | inactive: 0.046 | inactive: 0.005 | inactive: 0.122 | inactive: -0.234 | inactive: -0.168 | inactive: -0.135 | inactive: -0.083 | inactive: 0.146 | inactive: 0.084 | inactive: -0.401 | active: -1.2 | inactive: 0.302 | inactive: 0.048 | inactive: 0.152 | –
11 | NDRG2 (UniProt Q9UN36) | inactive: -0.04 | inactive: 0.058 | inactive: 0.08 | inactive: -0.005 | inactive: -0.013 | inactive: 0.001 | inactive: 0.011 | inactive: -0.012 | inactive: -0.013 | inactive: -0.004 | inactive: 0.012 | inactive: 0.008 | inactive: 0.037 | inactive: -0.022 | inactive: -0.068 | inactive: 0.042 | inactive: -0.008 | inactive: -0.044 | inactive: -0.072 | inactive: -0.033
12 | NDUFA12 (UniProt Q9UI09) | inactive: -0.014 | inactive: 0.011 | inactive: 0.016 | inactive: 0.147 | inactive: 0.075 | inactive: 0.001 | inactive: 0.061 | inactive: -0.007 | inactive: 0.028 | inactive: -0.031 | inactive: 0.05 | inactive: -0.078 | inactive: -0.04 | inactive: -0.043 | inactive: -0.128 | active: -0.31 | inactive: 0.021 | inactive: -0.06 | inactive: 0.122 | –
13 | NAP1L4 isoform 2 (UniProt Q99733) | inactive: -0.008 | inactive: 0.024 | inactive: 0.089 | inactive: -0.029 | inactive: -0.029 | inactive: 0.033 | inactive: -0.011 | inactive: 0.003 | inactive: -0.027 | inactive: 0.018 | inactive: 0.017 | inactive: -0.015 | inactive: 0.025 | inactive: -0.007 | inactive: 0.006 | inactive: 0.022 | inactive: 0.012 | inactive: 0.008 | inactive: 0.065 | inactive: -0.041
14 | NAA25 (UniProt Q14CX7) | inactive: -0.017 | inactive: 0.091 | inactive: 0.039 | inactive: 0.065 | inactive: 0.03 | inactive: -0.041 | inactive: 0.053 | inactive: 0.048 | inactive: -0.004 | inactive: 0.068 | inactive: -0.019 | inactive: 0.027 | inactive: -0.076 | inactive: -0.001 | inactive: -0.033 | inactive: -0.05 | inactive: -0.015 | inactive: -0.013 | inactive: 0.018 | inactive: 0.015
15 | NDUFAF7 (UniProt Q7L592) | inactive: 0.055 | inactive: -0.001 | inactive: 0.044 | inactive: 0.013 | inactive: 0.307 | inactive: -0.075 | inactive: 0.122 | inactive: 0.073 | inactive: -0.064 | inactive: 0.014 | inactive: 0.065 | inactive: 0.038 | inactive: -0.129 | inactive: 0.111 | inactive: -0.15 | inactive: -0.216 | inactive: 0.051 | inactive: -0.049 | inactive: 0.093 | inactive: -0.013
16 | NBN (UniProt O60934) | inactive: 0.064 | inactive: 0.087 | inactive: 0.06 | inactive: 0.033 | inactive: 0.005 | inactive: 0.028 | inactive: 0.012 | inactive: 0.002 | inactive: -0.029 | inactive: 0.037 | inactive: -0.009 | inactive: -0.008 | inactive: -0.147 | inactive: -0.028 | inactive: -0.062 | inactive: -0.025 | inactive: 0.007 | inactive: 0.009 | inactive: -0.02 | –

Record cards, as listed above. Order of values: log2 fold change (erlotinib) | log2 fold change [1] | log2 fold change [2] | log2 fold change [3] | log2 fold change [4] | log2 fold change [5] | log2 fold change [6] | log2 fold change [7] | log2 fold change [8] | log2 fold change [9] | log2 fold change (IRAK-1-4 Inhibitor I) | log2 fold change (ibrutinib) | log2 fold change [10] | log2 fold change (ralimetinib) | log2 fold change [11] | log2 fold change [12] | log2 fold change [13] | log2 fold change (pinometostat) | log2 fold change [14] | log2 fold change [15]
NDUFAF1 (UniProt Q9Y375) is listed with inactive: 0.009 | inactive: -0.06 | inactive: 0.084 | inactive: -0.037 | inactive: 0.025 | inactive: 0.065 | inactive: -0.038 | inactive: 0.008 | inactive: 0.023 | inactive: 0.019 | inactive: 0.02 | inactive: 0.045 | inactive: 0.004 | inactive: -0.04 | inactive: -0.047 | inactive: 0.004 | inactive: 0.017 | inactive: -0.053 | inactive: -0.021 | inactive: 0.017
NAP1L4 isoform 2 (UniProt Q99733) is listed with inactive: -0.008 | inactive: 0.024 | inactive: 0.089 | inactive: -0.029 | inactive: -0.029 | inactive: 0.033 | inactive: -0.011 | inactive: 0.003 | inactive: -0.027 | inactive: 0.018 | inactive: 0.017 | inactive: -0.015 | inactive: 0.025 | inactive: -0.007 | inactive: 0.006 | inactive: 0.022 | inactive: 0.012 | inactive: 0.008 | inactive: 0.065 | inactive: -0.041
